# Patent publication US7015238B2, “Crystalline organic acid salt of amlodipine” (CJ Corp., priority 2002, dated 2006)
# Where a name gives a salt, the structure may show the parent alone. For at least one compound, name, drawing or mass did not settle the structure.
# Assay: Evaluation of photostability (exposed to sunlight at 25° C. for 4 weeks, HPLC content)
# Type: physicochemical
# Details: initial stage; Hydrochloride
# Protocol: To evaluate photostability, a change in the content (%, HPLC) of each sample was observed under the same HPLC analysis conditions as in the evaluation of thermal stability. Photostability is quite an important factor in therapeutic agents for treating hypertension because they are administered to patients over a prolonged period of dosage.
smiles,measurement,value
"CCOC(=O)C1=C(COCCN)NC(C)=C(C(=O)OC)C1c1ccccc1Cl (stereo not shown) [Hydrochloride salt, Amlodipine Hydrochloride]",Content (HPLC),99.0%
